Results deposited as PubChem BioAssay AID504771 (Drosophila RNAi Screening Center, 2011).

Purpose: 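Genes whose knock-down alters aggregation of mutant huntingtin with 46 glutamines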 (follow-up of hits)
Cell system: Drosophila S2 cells with copper-inducible mutant huntingtin exon 1 (46 glutamines)-eGFP
Knock-down reagent: long dsRNA against Drosophila genes, 250 ng dsRNA per well
Duration: 3 days of knock-down, then 2 days of copper induction before fixing
Treatment: copper sulfate at 400 µM to switch on Htt-Q46-eGFP expression
Measurement: 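Per-well count, size and brightness of GFP aggregates from automated images, set against plate mean and SD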
Active means: 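Primary candidate if any aggregate measure lay more than 2 SD from the plate mean; active only if it then passed checks for off-target effects, reproducibility, independent dsRNAs and a promoter counter-screen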
Calls: active = confirmed modifier; inactive = primary candidate not confirmed
Only reagents picked out of a larger screen are listed. 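All genes were primary candidates; inactive means validation failed, not no effect; aggregate scores behind calls are not deposited.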 Reagents against one gene are numbered here. A plus sign joins genes that one reagent is predicted to hit. Reagent sequences are not shown.

Gene	reagent no.	aggregation phenotype	outcome
Gapdh2 (Glyceraldehyde 3 phosphate dehydrogenase 2)	1	knock-down lowers aggregates	inactive
stg (string)	1	knock-down raises aggregates	inactive
Cdc5 (Cell division cycle 5)	1	knock-down lowers aggregates	active
AGO1 (Argonaute-1)	1	knock-down lowers aggregates	inactive
Noc3 (Nucleolar complex protein 3)	1	knock-down lowers aggregates	inactive
Nelf-E (Negative elongation factor E)	1	knock-down raises aggregates	active
Dhfr (Dihydrofolate reductase)	1	knock-down lowers aggregates	inactive
GluProRS (Glutamyl-prolyl-tRNA synthetase)	1	knock-down lowers aggregates	inactive
mus201 + Chrac-14	1	knock-down may raise aggregates	active
RpL37-1 (Ribosomal protein L37-1)	1	knock-down lowers aggregates	inactive
spag (spaghetti)	1	knock-down raises aggregates	active
CycH (Cyclin H)	1	knock-down lowers aggregates	inactive
pzg (putzig)	1	knock-down raises aggregates	active
defl (deflated)	1	knock-down raises aggregates	active
Upf1 (Upf1 RNA helicase)	1	knock-down raises aggregates	active
Ssrp (Structure specific recognition protein)	1	knock-down raises aggregates	active
mRpL9 (mitochondrial ribosomal protein L9)	1	knock-down lowers aggregates	inactive
Prosbeta6 (Proteasome beta6 subunit)	1	knock-down lowers aggregates	inactive
Stip1 (Stress induced phosphoprotein 1)	1	knock-down raises aggregates	active
lic (licorne)	1		active
CG16903	1	knock-down lowers aggregates	inactive
RpL7 (Ribosomal protein L7)	1	knock-down lowers aggregates	inactive
eIF3k (eukaryotic translation initiation factor 3 subunit k)	1	knock-down raises aggregates	inactive
CG11566 (retired record) + stg1	1	knock-down raises aggregates	inactive
ND-B14 (NADH dehydrogenase (ubiquinone) B14 subunit)	1	knock-down lowers aggregates	inactive
TfIIFalpha (Transcription factor IIFalpha)	1	knock-down lowers aggregates	inactive
CG7214	1	knock-down lowers aggregates	inactive
SCAP (SREBP cleavage activating protein)	1	knock-down lowers aggregates	inactive
MED15 (Mediator complex subunit 15)	1	knock-down lowers aggregates	inactive
MED22 (Mediator complex subunit 22)	1	knock-down lowers aggregates	inactive
Mo25	1	knock-down lowers aggregates	inactive
BubR1 (Bub1-related kinase)	1	knock-down lowers aggregates	active
Cul1 (Cullin 1)	1	knock-down raises aggregates	inactive
Mal-B1 (Maltase B1)	1	knock-down lowers aggregates	inactive
RpS19a (Ribosomal protein S19a)	1	knock-down lowers aggregates	inactive
RpL11 (Ribosomal protein L11)	1	knock-down lowers aggregates	inactive
Prp38 (pre-mRNA processing factor 38)	1	knock-down lowers aggregates	inactive
Pgk (Phosphoglycerate kinase)	1	knock-down lowers aggregates	active
nub (nubbin)	1	knock-down raises aggregates	inactive
mge (maggie)	1	knock-down raises aggregates	active
RpS3 (Ribosomal protein S3)	1	knock-down lowers aggregates	inactive
larp (La related protein)	1	knock-down raises aggregates	inactive
larp (La related protein)	2	knock-down raises aggregates	inactive
RpS26 (Ribosomal protein S26)	1	knock-down lowers aggregates	inactive
RpL18 (Ribosomal protein L18)	1	knock-down lowers aggregates	inactive
RpL18 (Ribosomal protein L18)	2	knock-down lowers aggregates	inactive
Rrp45	1	knock-down lowers aggregates	inactive
CG18210 (retired record)	1	knock-down lowers aggregates	inactive
Bub3	1	knock-down lowers aggregates	active
eIF5B (eukaryotic translation initiation factor 5B)	1	knock-down lowers aggregates	inactive
eIF3g1 (eukaryotic translation initiation factor 3 subunit g1)	1	knock-down lowers aggregates	inactive
U2af50 (U2 small nuclear riboprotein auxiliary factor 50)	1	knock-down lowers aggregates	inactive
U2af50 (U2 small nuclear riboprotein auxiliary factor 50)	2	knock-down lowers aggregates	inactive
Hsc70-4 (Heat shock protein 70 cognate 4)	1	knock-down lowers aggregates	active
Cbp80 (cap binding protein 80)	1	knock-down lowers aggregates	inactive
Rrp6	1	knock-down lowers aggregates	inactive
eIF3d1 (eukaryotic translation initiation factor 3 subunit d1)	1	knock-down lowers aggregates	inactive
Prosalpha1 + Prosalpha1R	1	knock-down lowers aggregates	inactive
CG1677	1	knock-down lowers aggregates	inactive
Fs(2)Ket (Female sterile (2) Ketel)	1	knock-down lowers aggregates	inactive
CG33272	1	knock-down raises aggregates	inactive
Pitslre	1	knock-down lowers aggregates	inactive
ND-B14.7 (NADH dehydrogenase (ubiquinone) B14.7 subunit)	1	knock-down lowers aggregates	inactive
mahj (mahjong)	1	knock-down lowers aggregates	active
Sym (Symplekin)	1	knock-down lowers aggregates	inactive
Efa6 (Exchange factor for Arf 6)	1	knock-down raises aggregates	inactive
CG17026	1	knock-down lowers aggregates	inactive
CG6610	1	knock-down lowers aggregates	inactive
RpLP2 (Ribosomal protein LP2)	1	knock-down lowers aggregates	inactive
Smg5 (Smg5 nonsense mediated mRNA decay factor)	1	knock-down raises aggregates	active
CG33500	1	knock-down raises aggregates	inactive
RpL15 (Ribosomal protein L15)	1	knock-down lowers aggregates	inactive
Polr2E (RNA polymerase II, I and III subunit E)	1	knock-down lowers aggregates	inactive
Pi3K68D (Phosphatidylinositol 3-kinase 68D)	1		active
tral (trailer hitch)	1	knock-down raises aggregates	inactive
alphaTub84D (alpha-Tubulin at 84D)	1	knock-down lowers aggregates	inactive
Karybeta3 (Karyopherin beta 3)	1	knock-down lowers aggregates	active
Ctns (Cystinosin)	1	knock-down lowers aggregates	inactive
vtd (verthandi)	1	knock-down lowers aggregates	inactive
Rpn2 (Regulatory particle non-ATPase 2)	1	knock-down lowers aggregates	inactive
lola (longitudinals lacking)	1	knock-down raises aggregates	inactive
Prosalpha2 (Proteasome alpha2 subunit)	1	knock-down lowers aggregates	inactive
MED19 (Mediator complex subunit 19)	1	knock-down lowers aggregates	inactive
Ald1 (Aldolase 1)	1	knock-down lowers aggregates	active
r (rudimentary)	1	knock-down lowers aggregates	inactive
r (rudimentary)	2	knock-down lowers aggregates	inactive
ocm (over compensating males)	1	knock-down raises aggregates	active
Sumo (Small ubiquitin like modifier)	1	knock-down lowers aggregates	active
Ddx56 (DEAD-box helicase 56)	1	knock-down lowers aggregates	inactive
Hsp83 (Heat shock protein 83)	1	knock-down raises aggregates	active
Prp16 (pre-mRNA processing factor 16)	1	knock-down lowers aggregates	inactive
pont (pontin)	1	knock-down lowers aggregates	inactive
CG8435	1	knock-down lowers aggregates	inactive
TfIIB (Transcription factor IIB)	1	knock-down lowers aggregates	inactive
RpL23 (Ribosomal protein L23)	1	knock-down lowers aggregates	inactive
Prp3 (Precursor RNA processing 3)	1	knock-down lowers aggregates	inactive
VhaSFD (Vacuolar H[+]-ATPase SFD subunit)	1	knock-down raises aggregates	inactive
bin3 (bicoid-interacting protein 3)	1	knock-down raises aggregates	active
Mes2 (Mesoderm-expressed 2)	1	knock-down lowers aggregates	inactive
TH1	1	knock-down raises aggregates	active
Dhx15 (DEAH-box helicase 15)	1	knock-down lowers aggregates	inactive

Looked up above.
For “outcome”, Rrp45 shows inactive
Result for Ssrp (Structure specific recognition protein) under “aggregation phenotype”: knock-down raises aggregates
Gapdh2 (Glyceraldehyde 3 phosphate dehydrogenase 2), aggregation phenotype = knock-down lowers aggregates
CG7214, aggregation phenotype = knock-down lowers aggregates
GluProRS (Glutamyl-prolyl-tRNA synthetase), outcome = inactive
Entry of Fs(2)Ket (Female sterile (2) Ketel) in “outcome”: inactive
